Experimental data reported in PMC9090252.
Results are given in words; binding and its absence hold for the method and conditions named. Binding seen in cells or lysates may run through a third protein. Some results given as binding are weak or reduced against the parent protein; the word gives no strength. For some assays here: Where a sequence is shown, tags or fusion partners need not be part of it.

Sequences of proteins named here, by UniProt entry; tags and fusion partners are left off. Residues count along the entry.
UniProt O14786, residues 22-923: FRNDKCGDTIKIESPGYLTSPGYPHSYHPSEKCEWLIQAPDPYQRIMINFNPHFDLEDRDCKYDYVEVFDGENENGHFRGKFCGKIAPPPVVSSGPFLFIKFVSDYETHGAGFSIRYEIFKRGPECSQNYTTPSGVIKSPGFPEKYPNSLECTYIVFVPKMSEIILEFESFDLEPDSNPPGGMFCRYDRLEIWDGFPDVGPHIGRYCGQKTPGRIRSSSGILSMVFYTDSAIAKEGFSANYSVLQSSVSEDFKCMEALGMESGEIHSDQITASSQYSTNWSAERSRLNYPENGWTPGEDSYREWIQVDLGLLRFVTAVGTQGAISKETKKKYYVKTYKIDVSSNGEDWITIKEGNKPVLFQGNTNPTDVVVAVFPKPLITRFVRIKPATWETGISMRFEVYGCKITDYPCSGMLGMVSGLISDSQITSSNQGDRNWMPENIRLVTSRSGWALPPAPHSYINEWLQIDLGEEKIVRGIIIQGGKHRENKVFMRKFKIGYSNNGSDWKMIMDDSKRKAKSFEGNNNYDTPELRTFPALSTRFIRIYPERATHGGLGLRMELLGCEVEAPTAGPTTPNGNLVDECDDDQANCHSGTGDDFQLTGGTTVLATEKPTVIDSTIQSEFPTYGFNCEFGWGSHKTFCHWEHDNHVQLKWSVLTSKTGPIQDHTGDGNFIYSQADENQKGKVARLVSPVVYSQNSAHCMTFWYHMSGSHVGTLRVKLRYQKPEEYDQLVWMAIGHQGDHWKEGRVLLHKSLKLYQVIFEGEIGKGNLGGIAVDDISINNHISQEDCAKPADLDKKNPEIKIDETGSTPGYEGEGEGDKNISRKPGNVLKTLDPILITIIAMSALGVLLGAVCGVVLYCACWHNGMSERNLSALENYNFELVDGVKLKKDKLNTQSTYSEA
UniProt P37023, residues 22-503: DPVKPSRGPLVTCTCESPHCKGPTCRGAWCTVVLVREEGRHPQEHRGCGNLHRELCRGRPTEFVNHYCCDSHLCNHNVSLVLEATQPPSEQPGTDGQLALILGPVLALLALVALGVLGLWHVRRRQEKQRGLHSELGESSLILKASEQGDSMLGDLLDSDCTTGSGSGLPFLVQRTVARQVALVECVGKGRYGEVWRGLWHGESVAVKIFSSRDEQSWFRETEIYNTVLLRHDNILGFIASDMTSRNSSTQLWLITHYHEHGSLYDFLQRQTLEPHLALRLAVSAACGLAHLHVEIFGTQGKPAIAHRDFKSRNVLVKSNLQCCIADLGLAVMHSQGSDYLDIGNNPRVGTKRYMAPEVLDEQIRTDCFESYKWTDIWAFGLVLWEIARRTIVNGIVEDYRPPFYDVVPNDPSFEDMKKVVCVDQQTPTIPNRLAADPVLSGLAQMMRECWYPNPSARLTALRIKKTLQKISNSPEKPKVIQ

How the values were obtained:
[1] = target: Neuropilin-1 (NRP-1), overexpressed in HEK293T cells (UniProt O14786); test: co-IP; HEK293T cotransfected with NRP-1 and FLAG-ENG or FLAG-ALK1; lysate (500 ug) in IP buffer (50 mM Tris-buffered saline pH 8.0, 0.05% sodium deoxycholate, 0.1% NP-40); IP with 5 ug anti-NRP-1 antibody at 4 C overnight, anti-rabbit IgG magnetic beads; blot anti-FLAG
[2] = target: FLAG-tagged activin-A receptor like type 1 (ALK1), overexpressed in HEK293T cells (UniProt P37023); test: co-IP; HEK293T overexpressing NRP-1 and FLAG-ALK1 or FLAG-ENG; lysate immunoprecipitated with FLAG antibody; blot anti-NRP-1
[3] = target: T1, FLAG-tagged endoglin (ENG), overexpressed in HEK293T cells (UniProt P17813); test: as above
T1 sequence: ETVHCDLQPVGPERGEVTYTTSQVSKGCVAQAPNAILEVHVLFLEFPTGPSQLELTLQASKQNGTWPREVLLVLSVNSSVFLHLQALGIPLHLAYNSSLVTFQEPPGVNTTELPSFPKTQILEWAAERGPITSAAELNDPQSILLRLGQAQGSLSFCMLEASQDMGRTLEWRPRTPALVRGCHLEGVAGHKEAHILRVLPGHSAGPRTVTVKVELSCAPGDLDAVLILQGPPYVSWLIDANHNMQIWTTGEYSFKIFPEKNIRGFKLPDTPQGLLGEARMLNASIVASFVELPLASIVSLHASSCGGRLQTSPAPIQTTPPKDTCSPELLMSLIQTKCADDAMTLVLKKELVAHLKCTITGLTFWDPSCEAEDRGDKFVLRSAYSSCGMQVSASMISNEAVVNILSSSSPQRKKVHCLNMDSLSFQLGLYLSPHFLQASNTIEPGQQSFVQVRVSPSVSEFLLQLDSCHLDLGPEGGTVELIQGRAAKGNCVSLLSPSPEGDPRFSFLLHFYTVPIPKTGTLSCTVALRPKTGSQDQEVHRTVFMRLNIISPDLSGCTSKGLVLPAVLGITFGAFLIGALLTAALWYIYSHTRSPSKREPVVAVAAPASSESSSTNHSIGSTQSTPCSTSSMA

[4] = target: Neuropilin-1 (NRP-1), endogenous in mouse aortic smooth muscle cells (mouse (endogenous in aortic SMCs)) (UniProt P97333); test: co-IP; endogenous proteins in aortic SMCs from a C57BL/6J mouse, serum-starved overnight, unstimulated or stimulated with 10 ng/mL TGF-beta1 for 15 and 30 minutes; IP anti-NRP-1; blots for ALK1 and ENG

With “FLAG-tagged activin-A receptor like type 1 (ALK1), overexpressed in HEK293T cells (from UniProt P37023 22-503)” the binding [1] was “binds”.

With “Neuropilin-1 (NRP-1), overexpressed in HEK293T cells (from UniProt O14786 22-923) (receptor)” the binding [2] was “binds” and the binding [3] was “binds”.

B1: FLAG-tagged endoglin (ENG), overexpressed in HEK293T cells (receptor, UniProt P17813 26-658)
chain: ETVHCDLQPVGPERGEVTYTTSQVSKGCVAQAPNAILEVHVLFLEFPTGPSQLELTLQASKQNGTWPREVLLVLSVNSSVFLHLQALGIPLHLAYNSSLVTFQEPPGVNTTELPSFPKTQILEWAAERGPITSAAELNDPQSILLRLGQAQGSLSFCMLEASQDMGRTLEWRPRTPALVRGCHLEGVAGHKEAHILRVLPGHSAGPRTVTVKVELSCAPGDLDAVLILQGPPYVSWLIDANHNMQIWTTGEYSFKIFPEKNIRGFKLPDTPQGLLGEARMLNASIVASFVELPLASIVSLHASSCGGRLQTSPAPIQTTPPKDTCSPELLMSLIQTKCADDAMTLVLKKELVAHLKCTITGLTFWDPSCEAEDRGDKFVLRSAYSSCGMQVSASMISNEAVVNILSSSSPQRKKVHCLNMDSLSFQLGLYLSPHFLQASNTIEPGQQSFVQVRVSPSVSEFLLQLDSCHLDLGPEGGTVELIQGRAAKGNCVSLLSPSPEGDPRFSFLLHFYTVPIPKTGTLSCTVALRPKTGSQDQEVHRTVFMRLNIISPDLSGCTSKGLVLPAVLGITFGAFLIGALLTAALWYIYSHTRSPSKREPVVAVAAPASSESSSTNHSIGSTQSTPCSTSSMA
B1 was tested, and the binding [1] was “binds”.

B2: Activin-A receptor like type 1 (ALK1), endogenous in mouse aortic smooth muscle cells (receptor, UniProt Q61288 23-502)
chain: DLAKPSKLVNCTCESPHCKRPFCQGSWCTVVLVREQGRHPQVYRGCGSLNQELCLGRPTEFLNHHCCYRSFCNHNVSLMLEATQTPSEEPEVDAHLPLILGPVLALPVLVALGALGLWRVRRRQEKQRDLHSDLGESSLILKASEQADSMLGDFLDSDCTTGSGSGLPFLVQRTVARQVALVECVGKGRYGEVWRGSWHGESVAVKIFSSRDEQSWFRETEIYNTVLLRHDNILGFIASDMTSRNSSTQLWLITHYHEHGSLYDFLQRQTLEPQLALRLAVSAACGLAHLHVEIFGTQGKPAIAHRDLKSRNVLVKSNLQCCIADLGLAVMHSQSSDYLDIGNNPRVGTKRYMAPEVLDEHIRTDCFESYKWTDIWAFGLVLWEIARRTIINGIVEDYRPPFYDMVPNDPSFEDMKKVVCVDQQTPTIPNRLAADPVLSGLAQMMRECWYPNPSARLTALRIKKTLQKLSHNPEKPKVIH
In the case of B2, the binding [4] is reported as “binds”.
